# Assay results as given in the M2OR odorant receptor database.
# Chains of the proteins cited; added tags and fusions are not shown. Chains listed by the source or under a name are the forms on record and can include a tag or linker.
# OR5DE, as listed by the source: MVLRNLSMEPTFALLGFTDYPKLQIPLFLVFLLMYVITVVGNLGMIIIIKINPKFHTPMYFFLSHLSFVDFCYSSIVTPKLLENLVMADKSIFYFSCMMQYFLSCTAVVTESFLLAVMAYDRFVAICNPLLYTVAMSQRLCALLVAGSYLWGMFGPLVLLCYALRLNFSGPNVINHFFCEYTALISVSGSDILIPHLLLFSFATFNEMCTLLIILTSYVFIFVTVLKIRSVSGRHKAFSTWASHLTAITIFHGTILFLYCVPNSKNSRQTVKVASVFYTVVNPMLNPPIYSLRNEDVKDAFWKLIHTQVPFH
# The entries are a selection whose mix differs from that of the whole data set. Calls are pooled over several reports, among them a noisy single-well screen. Some of the results follow.
# Legend:
# Details in all cases: stereoisomer not certain
# [1] = system: OR5DE
# Summary of the method: (§1)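 Values were gathered from published papers (main text and supplementary material), with extra details requested from the original authors when needed, and checked for typos and inconsistencies. Each receptor–molecule pair is called responsive (active) if the original authors judged the measured signal statistically different from baseline, and non-responsive (inactive) otherwise. Assay methods varied by source, often transient mammalian cell-line luciferase assays. Recorded details include cell line, G-protein, co-transfected protein and tags.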
# [2] = system: OR5DE; remark: listed apart in the source
# Summary of the method: as §1
# [3] = system: OR5DE; remark: listed apart in the source
# Summary of the method: as §1
# [4] = system: OR5DE; remark: listed apart in the source
# Summary of the method: as §1
# [5] = target: OR5F1 (Homo sapiens) (UniProt O95221)
# Summary of the method: as §1
# [6] = target: OR5H14 (Homo sapiens) (UniProt A6NHG9)
# Summary of the method: as §1
# [7] = system: T1, OR5DG
# T1 sequence (whole entry): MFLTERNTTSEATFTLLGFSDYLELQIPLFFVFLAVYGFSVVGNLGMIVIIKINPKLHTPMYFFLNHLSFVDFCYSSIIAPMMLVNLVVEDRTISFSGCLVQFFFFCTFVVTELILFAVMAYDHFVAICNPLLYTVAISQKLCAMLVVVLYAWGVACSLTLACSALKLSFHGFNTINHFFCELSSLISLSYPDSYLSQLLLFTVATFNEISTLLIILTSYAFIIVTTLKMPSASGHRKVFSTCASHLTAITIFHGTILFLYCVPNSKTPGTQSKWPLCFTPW
# Summary of the method: as §1
# [8] = system: T2, OR5DI
# T2 sequence (whole entry): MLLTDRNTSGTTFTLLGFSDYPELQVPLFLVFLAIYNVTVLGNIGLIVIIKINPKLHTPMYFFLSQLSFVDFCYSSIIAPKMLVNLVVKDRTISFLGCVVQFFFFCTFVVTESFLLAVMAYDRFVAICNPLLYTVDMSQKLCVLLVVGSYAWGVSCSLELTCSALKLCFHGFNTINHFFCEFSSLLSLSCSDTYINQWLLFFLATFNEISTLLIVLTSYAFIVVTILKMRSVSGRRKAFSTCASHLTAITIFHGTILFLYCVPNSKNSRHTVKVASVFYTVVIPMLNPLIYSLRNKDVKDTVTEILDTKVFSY
# Summary of the method: as §1
# [9] = system: T3, OR5F1
# T3 sequence (whole entry): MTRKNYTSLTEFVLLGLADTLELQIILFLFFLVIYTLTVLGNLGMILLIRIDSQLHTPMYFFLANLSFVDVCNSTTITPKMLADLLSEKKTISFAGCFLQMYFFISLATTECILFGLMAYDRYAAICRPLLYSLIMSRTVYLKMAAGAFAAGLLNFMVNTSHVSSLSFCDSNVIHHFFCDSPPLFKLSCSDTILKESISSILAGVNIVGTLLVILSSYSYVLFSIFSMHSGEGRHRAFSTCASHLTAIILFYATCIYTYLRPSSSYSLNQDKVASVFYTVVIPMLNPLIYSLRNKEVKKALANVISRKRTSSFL
# Summary of the method: as §1
# [10] = target: T4, OR5H1 (Homo sapiens) (UniProt A6NKK0)
# T4 sequence (whole entry): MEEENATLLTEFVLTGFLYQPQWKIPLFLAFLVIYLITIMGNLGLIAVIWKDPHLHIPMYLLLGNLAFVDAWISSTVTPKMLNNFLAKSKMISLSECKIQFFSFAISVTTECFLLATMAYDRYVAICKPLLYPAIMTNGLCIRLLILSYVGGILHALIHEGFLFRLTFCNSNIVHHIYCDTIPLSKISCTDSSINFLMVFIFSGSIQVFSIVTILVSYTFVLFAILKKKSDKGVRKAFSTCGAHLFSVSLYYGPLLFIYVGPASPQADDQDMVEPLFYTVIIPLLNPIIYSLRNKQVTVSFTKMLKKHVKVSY
# Summary of the method: as §1
smiles,measurement,setting,value
CCCC(=O)O,odorant receptor agonist call,[1],active
same,odorant receptor agonist call,[2],inactive
same,odorant receptor agonist call,[3],inactive
same,odorant receptor agonist call,[4],inactive
CC12C=CCC1C1CCC3CC(=O)CCC3(C)C1CC2 (stereo unspecified),odorant receptor agonist call,[5],inactive
same,odorant receptor agonist call,[6],inactive
CCCCCC(=O)O,odorant receptor agonist call,[7],inactive
same,odorant receptor agonist call,[8],inactive
same,odorant receptor agonist call,[9],inactive
same,odorant receptor agonist call,[10],inactive
O=C1CCCCCCCCCCCCCCO1,odorant receptor agonist call,[7],inactive
same,odorant receptor agonist call,[8],inactive
same,odorant receptor agonist call,[9],inactive
same,odorant receptor agonist call,[10],inactive
CC(=O)OC(C)(C)C1CC=C(C)CC1 (stereo unspecified),odorant receptor agonist call,[7],inactive
same,odorant receptor agonist call,[8],inactive
same,odorant receptor agonist call,[9],inactive
same,odorant receptor agonist call,[10],inactive
CC12CCC(C1)C(C)(C)C2=O (stereo unspecified),odorant receptor agonist call,[7],inactive
same,odorant receptor agonist call,[8],inactive
same,odorant receptor agonist call,[9],inactive
same,odorant receptor agonist call,[10],inactive
C=CC(C)(O)CCC=C(C)C (stereo unspecified),odorant receptor agonist call,[7],inactive
same,odorant receptor agonist call,[8],inactive
same,odorant receptor agonist call,[9],inactive
same,odorant receptor agonist call,[10],inactive
CC=Cc1ccc(O)c(OC)c1,odorant receptor agonist call,[7],inactive
same,odorant receptor agonist call,[8],inactive
same,odorant receptor agonist call,[9],inactive
same,odorant receptor agonist call,[10],inactive
C=CCc1ccc(OC(C)=O)c(OC)c1,odorant receptor agonist call,[7],inactive
same,odorant receptor agonist call,[8],inactive
same,odorant receptor agonist call,[9],active
same,odorant receptor agonist call,[10],inactive
CCCCCCCCOC(C)=O,odorant receptor agonist call,[7],inactive
same,odorant receptor agonist call,[8],inactive
same,odorant receptor agonist call,[9],inactive
same,odorant receptor agonist call,[10],inactive
COc1ccccc1O,odorant receptor agonist call,[7],inactive
same,odorant receptor agonist call,[8],inactive
same,odorant receptor agonist call,[9],inactive
same,odorant receptor agonist call,[10],inactive
CCCCCOC(C)=O,odorant receptor agonist call,[7],inactive
same,odorant receptor agonist call,[8],inactive
same,odorant receptor agonist call,[9],inactive
same,odorant receptor agonist call,[10],inactive
COc1cc(C=O)ccc1O,odorant receptor agonist call,[7],inactive
same,odorant receptor agonist call,[8],inactive
same,odorant receptor agonist call,[9],inactive
same,odorant receptor agonist call,[10],inactive
CCCCCCCCCC=O,odorant receptor agonist call,[7],inactive
same,odorant receptor agonist call,[8],inactive
same,odorant receptor agonist call,[9],inactive
same,odorant receptor agonist call,[10],inactive
CCC1(O)C2(C)CCC(C2)C1(C)C (stereo unspecified),odorant receptor agonist call,[7],inactive
same,odorant receptor agonist call,[8],inactive
same,odorant receptor agonist call,[9],inactive
same,odorant receptor agonist call,[10],inactive
CCCCCCOC(=O)CCC,odorant receptor agonist call,[7],inactive
same,odorant receptor agonist call,[8],inactive
same,odorant receptor agonist call,[9],inactive
same,odorant receptor agonist call,[10],inactive
CC(C)=CCCC(C)=CC=O,odorant receptor agonist call,[7],inactive
same,odorant receptor agonist call,[8],inactive
same,odorant receptor agonist call,[9],inactive
same,odorant receptor agonist call,[10],inactive
CCCCCCCOC(C)=O,odorant receptor agonist call,[7],inactive
same,odorant receptor agonist call,[8],inactive
same,odorant receptor agonist call,[9],inactive
same,odorant receptor agonist call,[10],inactive
CC1=CCC(C(C)(C)O)CC1 (stereo unspecified),odorant receptor agonist call,[7],inactive
same,odorant receptor agonist call,[8],inactive
same,odorant receptor agonist call,[9],inactive
same,odorant receptor agonist call,[10],inactive
CC(=O)c1ccccc1,odorant receptor agonist call,[7],inactive
same,odorant receptor agonist call,[8],inactive
same,odorant receptor agonist call,[9],inactive
same,odorant receptor agonist call,[10],inactive
CCCCCCCC=O,odorant receptor agonist call,[7],inactive
same,odorant receptor agonist call,[8],inactive
same,odorant receptor agonist call,[9],inactive
same,odorant receptor agonist call,[10],inactive
CCCCCCCC=CC=O,odorant receptor agonist call,[7],active
same,odorant receptor agonist call,[8],inactive
same,odorant receptor agonist call,[9],inactive
same,odorant receptor agonist call,[10],active
CC(=O)OC1CC2CCC1(C)C2(C)C (stereo unspecified),odorant receptor agonist call,[7],inactive
same,odorant receptor agonist call,[8],inactive
same,odorant receptor agonist call,[9],inactive
same,odorant receptor agonist call,[10],inactive
C=CCc1ccc(OC)c(OC)c1,odorant receptor agonist call,[7],inactive
same,odorant receptor agonist call,[8],inactive
same,odorant receptor agonist call,[9],inactive
same,odorant receptor agonist call,[10],inactive
CC1COCc2cc3c(cc21)C(C)(C)C(C)C3(C)C (stereo unspecified),odorant receptor agonist call,[7],active
same,odorant receptor agonist call,[8],inactive
same,odorant receptor agonist call,[9],active
same,odorant receptor agonist call,[10],active
CCCCO,odorant receptor agonist call,[7],inactive
same,odorant receptor agonist call,[8],inactive
same,odorant receptor agonist call,[9],inactive
same,odorant receptor agonist call,[10],inactive
CC(C)(C)c1ccc(CCC=O)cc1,odorant receptor agonist call,[7],inactive
same,odorant receptor agonist call,[8],inactive
same,odorant receptor agonist call,[9],inactive
same,odorant receptor agonist call,[10],inactive

# Reprinted at random: 2 records from the list.
smiles,measurement,setting,value
C=CCc1ccc(OC)c(OC)c1,odorant receptor agonist call,[7],inactive
CC1COCc2cc3c(cc21)C(C)(C)C(C)C3(C)C (stereo unspecified),odorant receptor agonist call,[8],inactive

# Reformatted: entries from further up.
smiles | measurement | setting | value
C=CCc1ccc(OC)c(OC)c1 | odorant receptor agonist call | [9] | inactive
same | odorant receptor agonist call | [10] | inactive
